From PMC12614781, “The VelB IDD promotes selective heterodimer formation of velvet proteins for fungal development” (Life Science Alliance, 2025)
Results are given in words; binding and its absence hold for the method and conditions named. In cells and extracts the contact can be indirect. Some binding calls cover weakened binding; strength is not graded here. Tags and fused reporters may be left off the sequences shown.

Protein sequences, listed by entry. Tags and fused reporters are not part of them.
UniProt C8VTS4: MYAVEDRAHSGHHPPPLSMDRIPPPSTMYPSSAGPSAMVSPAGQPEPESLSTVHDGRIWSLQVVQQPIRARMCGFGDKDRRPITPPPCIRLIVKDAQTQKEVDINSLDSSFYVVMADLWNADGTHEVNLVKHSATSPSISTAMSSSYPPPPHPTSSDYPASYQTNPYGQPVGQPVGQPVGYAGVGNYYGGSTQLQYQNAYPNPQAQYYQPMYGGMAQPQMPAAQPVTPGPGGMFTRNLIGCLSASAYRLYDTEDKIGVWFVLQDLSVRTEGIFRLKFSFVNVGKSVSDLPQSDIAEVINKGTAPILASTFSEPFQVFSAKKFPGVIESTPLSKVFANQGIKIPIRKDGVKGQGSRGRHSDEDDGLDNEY

What was measured:
[1] = target: T1, VosA-HA (A. nidulans VosA with HA tag) (A. nidulans) (UniProt Q5BBX1); assay: co-IP; GFP and HA (anti-HA agarose) pull-downs from vegetative mycelium of A. nidulans strains expressing veA:HA or vosA:HA and velB:gfp or velB^ΔIDD:gfp under native promoters, intact veA; Western with GFP and HA antibodies
T1 sequence: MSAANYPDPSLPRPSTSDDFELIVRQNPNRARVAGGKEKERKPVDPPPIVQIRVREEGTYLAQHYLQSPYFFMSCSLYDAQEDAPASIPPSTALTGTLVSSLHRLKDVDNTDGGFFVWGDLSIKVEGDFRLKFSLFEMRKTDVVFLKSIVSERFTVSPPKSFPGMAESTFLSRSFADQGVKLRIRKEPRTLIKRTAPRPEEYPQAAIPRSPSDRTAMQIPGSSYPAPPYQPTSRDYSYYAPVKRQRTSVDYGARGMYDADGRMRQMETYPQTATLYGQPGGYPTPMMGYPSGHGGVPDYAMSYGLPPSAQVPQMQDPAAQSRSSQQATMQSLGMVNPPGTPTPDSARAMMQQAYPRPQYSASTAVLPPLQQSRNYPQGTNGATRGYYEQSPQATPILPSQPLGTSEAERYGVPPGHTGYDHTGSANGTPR

[2] = target: T2, VeA-HA (A. nidulans VeA with HA tag) (A. nidulans) (UniProt C8VTV4); assay: as above
T2 sequence: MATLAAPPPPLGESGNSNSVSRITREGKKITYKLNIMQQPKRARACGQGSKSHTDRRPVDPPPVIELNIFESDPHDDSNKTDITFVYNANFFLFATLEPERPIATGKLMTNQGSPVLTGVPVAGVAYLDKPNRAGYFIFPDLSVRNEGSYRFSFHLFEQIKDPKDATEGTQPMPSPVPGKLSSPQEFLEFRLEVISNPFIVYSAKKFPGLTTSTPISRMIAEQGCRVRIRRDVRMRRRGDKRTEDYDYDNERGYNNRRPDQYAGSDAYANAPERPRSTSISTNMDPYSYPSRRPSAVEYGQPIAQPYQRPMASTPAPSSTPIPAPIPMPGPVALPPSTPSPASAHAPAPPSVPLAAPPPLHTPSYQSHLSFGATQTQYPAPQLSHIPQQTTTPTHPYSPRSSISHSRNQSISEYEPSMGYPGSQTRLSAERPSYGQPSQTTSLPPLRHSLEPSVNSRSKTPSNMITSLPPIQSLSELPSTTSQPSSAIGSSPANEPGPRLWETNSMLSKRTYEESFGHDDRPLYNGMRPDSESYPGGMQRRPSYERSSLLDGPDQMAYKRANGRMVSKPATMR

[3] = target: T3, VosA-GST (full-length A. nidulans VosA fused to GST) (A. nidulans) (UniProt Q5BBX1); assay: pull-down; GST pull-down (in vitro co-immunoprecipitation): VosA-GST from E. coli supernatant on GST beads, washed, then VelB-His or VelB^ΔIDD-His added for 2 h at 4°C; buffer W (100 mM Tris pH 8, 150 mM NaCl, 1 mM EDTA); Western with α-His and α-GST; only the target purified
T3 sequence: T1 sequence

[4] = target: VelB-GFP (A. nidulans Velvet-like B, full length, fused to GFP) (A. nidulans) (UniProt C8VTS4); assay: co-IP; Co-IP with GFP and HA beads from 20-h vegetative mycelium of veA deletion strains expressing VosA-HA and VelB-GFP or VelB^ΔIDD-GFP; Western with anti-GFP and anti-HA
[5] = target: VelB-GFP (A. nidulans Velvet-like B, full length, fused to GFP) (A. nidulans) (UniProt C8VTS4); assay: co-IP; GFP and HA (anti-HA agarose) pull-downs from vegetative mycelium of A. nidulans strains expressing veA:HA or vosA:HA and velB:gfp or velB^ΔIDD:gfp under native promoters, intact veA; Western with GFP and HA antibodies

VelB-GFP (A. nidulans Velvet-like B, full length, fused to GFP) (from UniProt C8VTS4 1-369)
binding [1]: binds | binding [2]: binds

VelB-His (full-length A. nidulans VelB with His tag) (from UniProt C8VTS4 1-369)
binding [3]: binds

B1: VosA-HA (A. nidulans VosA with HA tag) (natural protein, UniProt Q5BBX1 1-430, looked up)
chain: T1 sequence
notes: Viability of spores A (VosA), A. nidulans, AN1959; the vosA gene amplified with its 5' flanking region; Plasmid pME4693; strains AGB1136 (with velB:gfp) and AGB1137 (with velB^ΔIDD:gfp); source: A. nidulans, vosA:ha under its native promoter, in extract of vegetative mycelium
binding [4]: binds | binding [5]: binds

B2: VeA-HA (A. nidulans VeA with HA tag) (protein, UniProt C8VTV4 1-573)
chain: T2 sequence
binding [5]: binds
